The list shows a part of the results.
Tested on: T1, CTL2-GFP (C. trachomatis L2/434/Bu, GFP-expressing)
T1 construct: L2/434/Bu, GFP-expressing
Design: species or system HeLa; Intracellular C. trachomatis growth in HeLa cells, bulk GFP fluorescence relative to DMSO
Conditions: bulk GFP, single well; 28.5 h, 10 µM; inhibitor

Compound | % of control remaining [%]
CN(CCOc1ccccc1)c1cc(C2CC(N)C2)nc(N)n1 (centres unmarked) [CBK306849] | 109.886
Cc1n[nH]c(C)c1CNC(=O)C1(c2ccccc2F)CC1 [CBK283156] | 143.162
Cc1cc(O)nc(SCC(=O)Nc2cc([N+](=O)[O-])ccc2C)n1 [CBK267488] | 98.5297
O=C1CCC(=O)N1CCOc1nccnc1OC1CCN(CCCn2c(=O)[nH]c3ccccc32)CC1 [CBK084350] | 125.301
CCCNC(=O)Cn1nc(C)n2c(cc3sc(C)cc32)c1=O [CBK284068] | 137.323
O=C(O)c1cccc(OCc2nnnn2-c2ccc(Br)cc2)c1 [CBK286744] | 144.642
CCOc1cc(NC2CCN(C(=O)C3CCCC(C)(C)C3)CC2)ncn1 (centres unmarked) [CBK305547] | 121.444
COc1ccc(OCC(O)Cn2c(CCCO)nc3ccccc32)cc1 (centres unmarked) [CBK305579] | 118.519
CCc1nc(C)ccc1OCC(O)CNC(C)(C)C (centres unmarked) [CBK019698] | 120.904
Cc1ccc(S(=O)(=O)NC(=O)N2CCCC2)cc1 [CBK001984] | 133.907
Nc1ncnc(NCCc2ccc(S(N)(=O)=O)cc2)c1[N+](=O)[O-] [CBK267320] | 150.97
CC1CCc2c(sc3nc(CN4CCCCC4C)[nH]c(=O)c23)C1 (centres unmarked) [CBK304975] | 142.457
Cn1c(C2CC2)nc2c1CCN(Cc1cc(=O)n(C)c(=O)n1C)C2 [CBK304025] | 97.4822
CC(C(=O)N1CCCCC1)n1sc2ccccc2c1=O (centres unmarked) [CBK116322] | 93.6654
COc1cc(NC(=O)Cn2c(-c3cncs3)nc3ccccc32)cc(OC)c1OC [CBK267640] | 111.403
O=C(O)CCC(=O)CCC(=O)c1ccc(F)cc1 [CBK287191] | 121.304
COc1cccc(CN2CC[C@H]3[C@@H](C2)[C@H](c2ccsc2)CN3C(=O)c2ccccc2)c1 [CBK285616] | 121.674
CN1CCC(N(C)C(=O)NCc2cccnc2)C1 (centres unmarked) [CBK156001] | 122.281
COc1ccc(O)c(C(=O)c2cnn(-c3ccccn3)c2)c1 [CBK295141] | 150.122
CC(=O)NC(=O)c1cccc(Br)c1 [CBK022890] | 111.33
Cc1nn(C(C)CC(=O)NCC2CCN(C(C)C)CC2)c(C)c1C (centres unmarked) [CBK282703] | 131.211
CCNC(=O)c1cnc(-c2ccc(Cl)cc2)c(-c2cccnc2)c1 [CBK037584] | 148.562
CCOC(=O)CCCNC(=O)N(CC)Cc1ccccc1 [CBK155252] | 193.259

A few values from the entries so far.
Under % of control remaining [%], Cc1ccc(S(=O)(=O)NC(=O)N2CCCC2)cc1 [CBK001984] is entered as 133.907
Under % of control remaining [%], Cc1n[nH]c(C)c1CNC(=O)C1(c2ccccc2F)CC1 [CBK283156] is entered as 143.162

— article PMC12040169 (PLOS Biology, 2025)
